PubChem BioAssay AID1259308, NCATS | 2017

- Test: 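Knock-downs that increase output of a recombinant reporter protein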 (primary screen)
- System: human HEK293 embryonic kidney cells stably expressing firefly luciferase (HEK-CMV-Luc2-Hygro)
- Reagents: single siRNA against human genes, 0.8 pmol siRNA per well
- Timing: 72 h
- Read-out: 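Reporter luminescence and viable-cell signal on separate replicate plates, given as percent of non-targeting control and median/MAD z-scores, plus per-cell luciferase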
- Scale: total luciferase, z-score and total luciferase, % of control: higher = more reporter protein produced; luciferase per cell, z-score: higher = more reporter output per viable cell; viable cells, % of control: higher = more viable cells
- Hit rule: 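Active when the median/MAD z-score for overall luciferase is greater than 3; a gene was taken forward for validation with new siRNAs if at least two of its three siRNAs passed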
- Meaning of the calls: active = raised luciferase; inactive = no rise
In all, the deposit lists about 59,000 reagents; this is a part drawn at random. About 1,510 of them (2.6%) were called active. 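Calls use total luciferase alone and ignore viability, so some active siRNAs may act by altering cell number.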 Unmarked entries are inactive. No sequences are given here.

total luciferase, z-score	total luciferase, % of control	luciferase per cell, z-score	viable cells, % of control	Target gene	PubChem SID
0.378	89.4	-0.188	105	ATP6V0D1 (GeneID 9114)	SID160721501
0.178	85.4	-0.18	100	ATP6V0D1 (GeneID 9114)	SID160721502
-0.021	81.5	-0.261	97.5	ATP6V0D1 (GeneID 9114)	SID160721503
0.167	85.2	0.66	80	TMEM161B (GeneID 153396)	SID160759328
-1.19	58.3	-1.26	90.7	TMEM161B (GeneID 153396)	SID160759329
5.58 (active)	193	3.71	81.1	TMEM161B (GeneID 153396)	SID160759331
-0.602	69.9	0.242	73.3	ROPN1 (GeneID 54763)	SID160742124
2.12	124	2.03	81.3	ROPN1 (GeneID 54763)	SID160742125
-0.862	64.7	-1.17	98.4	ROPN1 (GeneID 54763)	SID160742126
-0.298	75.9	0.28	78.8	MAB21L4 (GeneID 79919)	SID160734959
0.436	90.6	0.64	85.5	MAB21L4 (GeneID 79919)	SID160749772
0.471	91.2	0.416	91.4	MAB21L4 (GeneID 79919)	SID160749773
1.81	118	0.865	105	LINC02120 (GeneID 340113)	SID160733089
4.9 (active)	179	3.92	71.3	LINC02120 (GeneID 340113)	SID160764365
2.94	140	1.8	97.6	LINC02120 (GeneID 340113)	SID160764367
-0.726	67.4	-0.796	92.9	BOD1 (GeneID 91272)	SID160753924
1.29	108	1.42	82.8	BOD1 (GeneID 91272)	SID160753925
-0.904	63.9	-0.635	84.4	BOD1 (GeneID 91272)	SID160753926
-0.944	63.1	-1.3	99.4	ERCC3 (GeneID 2071)	SID160761597
-1.18	58.4	-1.44	95.3	ERCC3 (GeneID 2071)	SID160761606
-1.09	60.2	-1.01	87.8	ERCC3 (GeneID 2071)	SID160761617
-0.954	62.9	-1.27	98.2	ATP2C1 (GeneID 27032)	SID160738267
0.313	88.1	0.835	79	ATP2C1 (GeneID 27032)	SID160738268
0.459	91	-0.619	120	ATP2C1 (GeneID 27032)	SID160738269
-1.48	52.5	-1.35	83.6	NOXRED1 (GeneID 122945)	SID160732390
0.394	89.7	0.17	95.9	NOXRED1 (GeneID 122945)	SID160756031
-0.106	79.8	-0.524	102	NOXRED1 (GeneID 122945)	SID160756032
-0.566	70.6	-0.858	98.9	FCER1A (GeneID 2205)	SID160764262
-0.201	77.9	0.206	82.5	FCER1A (GeneID 2205)	SID160764272
-1.3	56	-1.52	93.3	FCER1A (GeneID 2205)	SID160764282
-0.347	75	-0.799	103	ZFAND5 (GeneID 7763)	SID160719290
1.28	107	1.38	83.4	ZFAND5 (GeneID 7763)	SID160719291
-1.89	44.3	-1.26	69.1	ZFAND5 (GeneID 7763)	SID160719292
-0.388	74.2	-0.502	94.6	TXNDC15 (GeneID 79770)	SID160749397
0.167	85.2	0.501	83.5	TXNDC15 (GeneID 79770)	SID160749398
-0.237	77.2	-0.415	96.2	TXNDC15 (GeneID 79770)	SID160749399
3.17 (active)	145	2.45	85	KRT7 (GeneID 3855)	SID160731174
-0.541	71.1	-0.6	93.1	KRT7 (GeneID 3855)	SID160776397
0.902	99.8	0.278	104	KRT7 (GeneID 3855)	SID160776398
0.773	97.3	0.35	99.1	DPAGT1 (GeneID 1798)	SID160755853
-0.142	79.1	-0.94	113	DPAGT1 (GeneID 1798)	SID160755863
0.148	84.8	-0.175	99.3	DPAGT1 (GeneID 1798)	SID160755871
0.485	91.5	0.145	98.5	MRPL1 (GeneID 65008)	SID160748205
0.758	97	0.0157	108	MRPL1 (GeneID 65008)	SID160748206
-0.285	76.2	-0.498	97.1	MRPL1 (GeneID 65008)	SID160748207
-0.867	64.6	-1.33	103	GSTA1 (GeneID 2938)	SID160774643
-0.162	78.7	-1.15	119	GSTA1 (GeneID 2938)	SID160774644
-0.204	77.8	-0.265	93.2	GSTA1 (GeneID 2938)	SID160774645
-0.434	73.3	-0.502	93.4	BTF3L4 (GeneID 91408)	SID160732140
0.674	95.3	0.318	97.9	BTF3L4 (GeneID 91408)	SID160753968
-0.26	76.7	-0.153	89.3	BTF3L4 (GeneID 91408)	SID160753969
0.401	89.9	0.755	82.3	KIRREL1 (GeneID 55243)	SID160743323
-0.561	70.7	-0.468	89.4	KIRREL1 (GeneID 55243)	SID160743324
0.15	84.9	0.845	75.9	KIRREL1 (GeneID 55243)	SID160743325
-0.233	77.3	-0.763	106	DUSP23 (GeneID 54935)	SID160724449
0.41	90	-0.131	104	DUSP23 (GeneID 54935)	SID160731476
0.414	90.1	0.816	81.2	DUSP23 (GeneID 54935)	SID160742537
0.235	86.6	-0.364	106	DPRX (GeneID 503834)	SID160768307
-2.01	41.9	-1.89	76.9	DPRX (GeneID 503834)	SID160768308
-0.191	78.1	-0.522	100	DPRX (GeneID 503834)	SID160768309
0.189	85.7	0.0277	95	INPP5A (GeneID 3632)	SID160775866
-0.611	69.7	-0.623	91.8	INPP5A (GeneID 3632)	SID160775867
-0.382	74.3	-0.428	92.9	INPP5A (GeneID 3632)	SID160775868
-0.214	77.6	-0.82	108	DSPP (GeneID 1834)	SID160756845
-0.276	76.4	-0.782	105	DSPP (GeneID 1834)	SID160756857
-1.7	48.1	-1.09	71.6	DSPP (GeneID 1834)	SID160756867
0.0521	82.9	-0.531	107	DVL1 (GeneID 1855)	SID160757408
0.649	94.8	-0.103	109	DVL1 (GeneID 1855)	SID160757418
0.326	88.4	-0.111	102	DVL1 (GeneID 1855)	SID160757427
0.17	85.3	-0.0288	96	SSBP2 (GeneID 23635)	SID160736725
0.34	88.7	0.341	90.6	SSBP2 (GeneID 23635)	SID160736726
-0.819	65.6	-0.506	83.7	SSBP2 (GeneID 23635)	SID160736727
-0.0339	81.2	0.238	85.2	TBC1D10A (GeneID 83874)	SID160751465
0.689	95.6	1.33	75.2	TBC1D10A (GeneID 83874)	SID160751466
-0.257	76.8	0.32	78.9	TBC1D10A (GeneID 83874)	SID160751467

An excerpt from the list above:
total luciferase, z-score	total luciferase, % of control	luciferase per cell, z-score	viable cells, % of control	Target gene	PubChem SID
-0.566	70.6	-0.858	98.9	FCER1A (GeneID 2205)	SID160764262
-0.201	77.9	0.206	82.5	FCER1A (GeneID 2205)	SID160764272
-1.3	56	-1.52	93.3	FCER1A (GeneID 2205)	SID160764282
